Results on 25 molecules are retold here after PubChem BioAssay AID330 (DTP/NCI, 2004).

The test has as its system P388 leukemia ip, CD2F1 mice, survival T/C. The test can be described thus: NCI In Vivo Anticancer Drug Screen. Data for tumor model P388 Leukemia (intraperitoneal) in CD2F1 (CDF1) mice. The following applies: T/C endpoint: median survival time, higher T/C = longer survival.
[1] abbreviates: dose: 50.0 mg/kg/injection, schedule: Q01DX005 (ip), vehicle: Klucel (hydroxypropylcellulose) (HPC).
[2] abbreviates: dose: 25.0 mg/kg/injection, schedule: Q01DX009 (ip), vehicle: saline with Tween-80.
Where [3] appears, read: dose: 100.0 mg/kg/injection, schedule: Q01DX009 (ip), vehicle: saline.
[4] abbreviates: dose: 100.0 mg/kg/injection, schedule: Q04DX002 (ip), vehicle: saline with Tween-80.
[5] abbreviates: dose: 200.0 mg/kg/injection, schedule: Q01DX009 (ip), vehicle: saline.
Where [6] appears, read: dose: 100.0 mg/kg/injection, schedule: Q01DX009 (ip), vehicle: water.

The list is a part of this screen's results and no random one: it is rich in T/C values a quarter to a half above the control, in often repeated tests (any T/C) and in doses without a T/C. Further doses and runs are listed elsewhere. T/C: endpoint of the treated group in % of that of the vehicle group. Some entries give survivors of the animals treated and no T/C: the source files T/C as zero there, which appears to mark a toxic dose or a test without result, not a measured value. Some survivor counts are full or nearly so, which does not show that the dose was tolerated: the source hardly ever lists a survival T/C far under the control, and the zero likely stands for such cases as well. Counts of survivors are from the toxicity check (mostly the fifth day) where no day follows; animals may have died later. Schedules are NCI's codes, taken here to give the interval after Q, in days (D) or hours (H), and the number of doses after X. Some doses were run more than once; their values stand side by side, smallest first. For survival time, this PubChem deposit counts one and a half times the control or more as active, and values a quarter to a half above the control carry no call in these data; other NCI protocols may use other cut-offs. Some T/C values are followed by the survivors on the day toxicity was checked, most often the fifth; without a count, all were alive then. Marks such as (2×) give the number of equal values in this list.

Turning to `COc1cc2c3cc1Oc1c(O)c(OC)cc4c1[C@H](Cc1ccc(O)c(c1)Oc1ccc(cc1)C[C@H]3N(C)CC2)N(C)CC4`, the survivor count reads like this: (dose: 75.0 mg/kg/injection, schedule: Q01DX009 (ip), vehicle: Klucel (hydroxypropylcellulose) (HPC)) 6 of 6; (dose: 150.0 mg/kg/injection, schedule: Q01DX009 (ip), vehicle: Klucel (hydroxypropylcellulose) (HPC)) 2 of 6.

As to `CC1(C)N=C(N)N=C(N)N1c1ccc(F)cc1`, the survivor count under setting [1] is 0 of 6.

Turning to `O=C(NCCCl)Oc1c(Cl)cc(Cl)cc1Cl`, the survivor count by setting is: under setting [1], 4 of 6; (dose: 75.0 mg/kg/injection, schedule: Q01DX005 (ip), vehicle: Klucel (hydroxypropylcellulose) (HPC)) 3 of 6.

With `Cc1nn(-c2ccc(Cl)cc2)c2c1c(=O)[nH]c1ccccc12`, the survivor count (dose: 30.0 mg/kg/injection, schedule: Q01DX005 (ip), vehicle: saline with Tween-80) is listed as 6 of 6; the survivor count (dose: 60.0 mg/kg/injection, schedule: Q01DX005 (ip), vehicle: saline with Tween-80) is 1 of 6; the survivor count (dose: 120.0 mg/kg/injection, schedule: Q01DX005 (ip), vehicle: saline with Tween-80) is reported as 0 of 6; the survivor count (dose: 240.0 mg/kg/injection, schedule: Q01DX005 (ip), vehicle: saline with Tween-80) is 0 of 6.

On to `Cc1ccc2c(ccc(/C=C\c3cc(C)c4cccnc4c3O)[n+]2C)c1`, for which the T/C is, setting by setting: (dose: 1.56 mg/kg/injection, schedule: Q01DX009 (ip), vehicle: saline with Tween-80) 130 % of control; (dose: 3.13 mg/kg/injection, schedule: Q01DX009 (ip), vehicle: saline with Tween-80) 134 % of control. The survivor count by setting is: (dose: 6.25 mg/kg/injection, schedule: Q01DX009 (ip), vehicle: saline with Tween-80) 3 of 6 and 5 of 6; (dose: 12.5 mg/kg/injection, schedule: Q01DX009 (ip), vehicle: saline with Tween-80) 6 of 6; under setting [2], 0 of 6; (dose: 50.0 mg/kg/injection, schedule: Q01DX009 (ip), vehicle: saline with Tween-80) 0 of 6.

Take `O=C1C=C(Br)C(=O)C(Br)=C1`: the survivor count was 3 of 5 and 5 of 6 (dose: 12.5 mg/kg/injection, schedule: Q01DX009 (ip), vehicle: distilled water + Tween-80); 2 of 6 and 2 of 5 (dose: 25.0 mg/kg/injection, schedule: Q01DX009 (ip), vehicle: distilled water + Tween-80); 0 of 5 (dose: 50.0 mg/kg/injection, schedule: Q01DX009 (ip), vehicle: distilled water + Tween-80); 0 of 5 (dose: 100.0 mg/kg/injection, schedule: Q01DX009 (ip), vehicle: distilled water + Tween-80); 0 of 5 (dose: 200.0 mg/kg/injection, schedule: Q01DX009 (ip), vehicle: distilled water + Tween-80).

As to `NNC(=O)C(NC=O)C(N)=O` (centres undefined), under setting [3], the survivor count is 6 of 6.

As to `O=C(Nc1ccc(Cl)cc1)NN1CCCCCC1`, the survivor count under setting [4] was 2 of 6.

Consider `NC(N)=N/N=C/c1ccc(-c2ccccc2)cc1`, for which the survivor count under setting [2] was 3 of 6.

With `Fc1ccc(C(Nc2nncs2)Nc2nncs2)cc1`, the T/C (dose: 100.0 mg/kg/injection, schedule: Q01DX005 (ip), vehicle: Klucel (hydroxypropylcellulose) (HPC)) is 127 % of control.

In the case of `O=C1CCSC(=S)N1c1ccc(Cl)c(C(F)(F)F)c1`, the T/C under setting [5] is 128 % of control.

For `Clc1cc2[nH]ccc2c(Cl)n1`, the survivor count (dose: 200.0 mg/kg/injection, schedule: Q01DX001 (ip), vehicle: saline with Tween-80) is 0 of 6.

As to `O=c1c(Cl)c2oc3ccc([N+](=O)[O-])cc3nc-2c(Cl)c1Cl`, for the setting “dose: 200.0 mg/kg/injection, schedule: Q01DX009 (ip), vehicle: saline with Tween-80”, the survivor count is given as 0 of 6.

As to `CCCCCCCC[N+]1(CC)CCCCC1`, the survivor count runs as follows: (dose: 50.0 mg/kg/injection, schedule: Q01DX009 (ip), vehicle: saline) 1 of 6; under setting [3], 0 of 6; under setting [5], 0 of 6.

In the case of `N#C/C(=C\c1ccccc1)CN1CCCCC1`, the survivor count (dose: 400.0 mg/kg/injection, schedule: Q01DX001 (ip), vehicle: saline with Tween-80) is 0 of 6.

Take `COc1cc(C=C2C(=O)C=CC2=O)ccc1OCc1ccccc1`: the survivor count reads like this: (dose: 50.0 mg/kg/injection, schedule: Q04DX002 (ip), vehicle: saline with Tween-80) 0 of 6; under setting [4], 0 of 6.

`Nc1nncs1`: the T/C is, setting by setting: (dose: 12.5 mg/kg/injection, schedule: Q01DX009 (ip), vehicle: water, evaluated on day 30) 139 and 145 % of control (2×); (dose: 12.5 mg/kg/injection, schedule: Q01DX009 (ip), vehicle: water, evaluated on day 35) 110 % of control; (dose: 15.0 mg/kg/injection, schedule: Q01DX009 (ip), vehicle: water) 128 % of control; (dose: 25.0 mg/kg/injection, schedule: Q01DX009 (ip), vehicle: water, evaluated on day 30) 166, 181, 193 % of control; (dose: 25.0 mg/kg/injection, schedule: Q01DX009 (ip), vehicle: water, evaluated on day 35) 162 % of control; (dose: 30.0 mg/kg/injection, schedule: Q01DX009 (ip), vehicle: water) 140 % of control. Moreover, the T/C is 136 % of control (dose: 40.0 mg/kg/injection, schedule: Q01DX005 (ip), vehicle: saline); 90 and 168 % of control (dose: 50.0 mg/kg/injection, schedule: Q01DX009 (ip), vehicle: water, evaluated on day 30); 162 % of control (dose: 50.0 mg/kg/injection, schedule: Q01DX009 (ip), vehicle: water, evaluated on day 35); 90 % of control under setting [6]. The survivor count reads like this: (dose: 50.0 mg/kg/injection, schedule: Q01DX009 (ip), vehicle: water) 4 of 6; under setting [6], 2 of 6, 5 of 6, 6 of 6; (dose: 120.0 mg/kg/injection, schedule: Q01DX009 (ip), vehicle: water) 6 of 6; (dose: 200.0 mg/kg/injection, schedule: Q01DX009 (ip), vehicle: water) 5 of 6 and 6 of 6.

`COc1cccc2c1C(=O)c1c(O)c3c(c(O)c1C2=O)C[C@@](O)(C(O)CO)C[C@@H]3OC1CC(NC(=O)C(F)(F)F)C(O)C(C)O1` (some centres undefined): the T/C reads like this: (dose: 1.56 mg/kg/injection, schedule: Q01DX009 (ip), vehicle: other) 128 and 130 % of control; (dose: 6.25 mg/kg/injection, schedule: Q01DX009 (ip), vehicle: other) 138 and 142 % of control; (dose: 12.5 mg/kg/injection, schedule: Q01DX009 (ip), vehicle: other) 142 and 149 % of control.

As for `CC(=O)OC1=C2C(C)(C)OC3CC(=O)OCC23C2CCC3(C)C(c4ccoc4)OC(=O)C4OC43C2(C)C1=O` (centres undefined), the survivor count (dose: 8.0 mg/kg/injection, schedule: Q01DX009 (ip), vehicle: saline + alcohol) is recorded as 3 of 6.

For `NC(CCS)C(=O)O` (centres undefined), for the setting “dose: 200.0 mg/kg/injection, schedule: Q01DX005 (ip), vehicle: saline with Tween-80”, the survivor count is recorded as 6 of 6.

Regarding `Cn1c(O)c(N=NC(N)=S)c2ccccc21`, the survivor count (dose: 400.0 mg/kg/injection, schedule: Q04DX003 (ip), vehicle: saline with Tween-80) is listed as 3 of 6.

Turning to `Cc1c2c(cc3c1[nH]c1ccccc13)C(=O)c1ccccc1C2=O`, the survivor count (dose: 100.0 mg/kg/injection, schedule: Q01DX005 (ip), vehicle: saline with Tween-80) is reported as 5 of 5.

`CCCC(O)CN` (centres undefined): the survivor count (dose: 400.0 mg/kg/injection, schedule: Q04DX003 (ip), vehicle: saline) was 5 of 6.

`Cc1cc(=O)n2[nH]cnc2n1`: the survivor count (dose: 12.5 mg/kg/injection, schedule: Q01DX009 (ip), vehicle: Klucel (hydroxypropylcellulose) (HPC)) is recorded as 6 of 6. The T/C was 86 [5 of 6 alive], 96, 98, 100, 116 % of control (dose: 50.0 mg/kg/injection, schedule: Q01DX009 (ip), vehicle: Klucel (hydroxypropylcellulose) (HPC)) and 94, 99, 100, 111, 124 % of control (dose: 100.0 mg/kg/injection, schedule: Q01DX009 (ip), vehicle: Klucel (hydroxypropylcellulose) (HPC)).

For the molecule `C1COCCOCCNCCOCCOCCN1`, under “dose: 200.0 mg/kg/injection, schedule: Q01DX005 (ip), vehicle: saline”, the survivor count is 0 of 5.
